Data: the supplement of paper PMC10849652
This is one part of the list.

Amino acid sequences for entries named in this document (tags omitted). A change or cut given only in a name is not applied to a line headed by its entry.
UniProt Q9UN86: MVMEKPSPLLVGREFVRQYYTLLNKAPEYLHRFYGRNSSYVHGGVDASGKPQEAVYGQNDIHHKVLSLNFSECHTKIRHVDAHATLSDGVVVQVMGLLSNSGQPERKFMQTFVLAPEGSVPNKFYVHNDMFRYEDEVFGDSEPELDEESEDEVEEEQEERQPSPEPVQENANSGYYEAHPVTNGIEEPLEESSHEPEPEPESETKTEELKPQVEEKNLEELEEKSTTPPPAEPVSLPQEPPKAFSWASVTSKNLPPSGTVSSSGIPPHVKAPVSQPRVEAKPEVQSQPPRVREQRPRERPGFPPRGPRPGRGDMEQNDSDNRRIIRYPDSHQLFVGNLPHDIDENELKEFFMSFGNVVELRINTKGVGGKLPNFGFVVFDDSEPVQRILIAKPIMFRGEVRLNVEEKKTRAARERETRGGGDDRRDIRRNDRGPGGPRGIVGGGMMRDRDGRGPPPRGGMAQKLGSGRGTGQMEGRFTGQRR
UniProt Q8TB36: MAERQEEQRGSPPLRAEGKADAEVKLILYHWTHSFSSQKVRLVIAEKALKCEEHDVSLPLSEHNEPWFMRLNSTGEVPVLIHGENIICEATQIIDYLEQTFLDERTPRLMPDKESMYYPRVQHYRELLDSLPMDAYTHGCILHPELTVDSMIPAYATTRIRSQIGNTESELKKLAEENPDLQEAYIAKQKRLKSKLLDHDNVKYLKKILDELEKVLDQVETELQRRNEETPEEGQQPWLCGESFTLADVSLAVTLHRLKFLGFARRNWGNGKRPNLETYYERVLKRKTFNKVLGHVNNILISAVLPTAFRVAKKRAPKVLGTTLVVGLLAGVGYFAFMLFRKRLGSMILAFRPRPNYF
UniProt O75223: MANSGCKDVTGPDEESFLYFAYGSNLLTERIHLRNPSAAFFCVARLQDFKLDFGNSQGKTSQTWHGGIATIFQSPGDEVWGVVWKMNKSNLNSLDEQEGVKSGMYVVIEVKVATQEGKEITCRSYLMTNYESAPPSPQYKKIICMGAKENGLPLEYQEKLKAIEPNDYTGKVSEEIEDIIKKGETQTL
UniProt Q7L5D6: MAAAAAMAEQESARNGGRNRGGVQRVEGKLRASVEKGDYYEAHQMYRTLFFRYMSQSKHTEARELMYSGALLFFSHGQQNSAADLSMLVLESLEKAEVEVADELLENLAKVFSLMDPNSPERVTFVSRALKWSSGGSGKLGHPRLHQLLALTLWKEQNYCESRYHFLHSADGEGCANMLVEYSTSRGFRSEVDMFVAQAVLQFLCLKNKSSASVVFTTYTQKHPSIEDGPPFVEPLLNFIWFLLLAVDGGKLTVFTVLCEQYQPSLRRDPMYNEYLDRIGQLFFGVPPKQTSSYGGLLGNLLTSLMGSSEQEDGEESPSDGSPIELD
UniProt P30047: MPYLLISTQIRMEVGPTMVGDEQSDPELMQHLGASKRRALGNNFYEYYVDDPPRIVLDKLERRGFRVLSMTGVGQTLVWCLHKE
UniProt Q8TEQ6: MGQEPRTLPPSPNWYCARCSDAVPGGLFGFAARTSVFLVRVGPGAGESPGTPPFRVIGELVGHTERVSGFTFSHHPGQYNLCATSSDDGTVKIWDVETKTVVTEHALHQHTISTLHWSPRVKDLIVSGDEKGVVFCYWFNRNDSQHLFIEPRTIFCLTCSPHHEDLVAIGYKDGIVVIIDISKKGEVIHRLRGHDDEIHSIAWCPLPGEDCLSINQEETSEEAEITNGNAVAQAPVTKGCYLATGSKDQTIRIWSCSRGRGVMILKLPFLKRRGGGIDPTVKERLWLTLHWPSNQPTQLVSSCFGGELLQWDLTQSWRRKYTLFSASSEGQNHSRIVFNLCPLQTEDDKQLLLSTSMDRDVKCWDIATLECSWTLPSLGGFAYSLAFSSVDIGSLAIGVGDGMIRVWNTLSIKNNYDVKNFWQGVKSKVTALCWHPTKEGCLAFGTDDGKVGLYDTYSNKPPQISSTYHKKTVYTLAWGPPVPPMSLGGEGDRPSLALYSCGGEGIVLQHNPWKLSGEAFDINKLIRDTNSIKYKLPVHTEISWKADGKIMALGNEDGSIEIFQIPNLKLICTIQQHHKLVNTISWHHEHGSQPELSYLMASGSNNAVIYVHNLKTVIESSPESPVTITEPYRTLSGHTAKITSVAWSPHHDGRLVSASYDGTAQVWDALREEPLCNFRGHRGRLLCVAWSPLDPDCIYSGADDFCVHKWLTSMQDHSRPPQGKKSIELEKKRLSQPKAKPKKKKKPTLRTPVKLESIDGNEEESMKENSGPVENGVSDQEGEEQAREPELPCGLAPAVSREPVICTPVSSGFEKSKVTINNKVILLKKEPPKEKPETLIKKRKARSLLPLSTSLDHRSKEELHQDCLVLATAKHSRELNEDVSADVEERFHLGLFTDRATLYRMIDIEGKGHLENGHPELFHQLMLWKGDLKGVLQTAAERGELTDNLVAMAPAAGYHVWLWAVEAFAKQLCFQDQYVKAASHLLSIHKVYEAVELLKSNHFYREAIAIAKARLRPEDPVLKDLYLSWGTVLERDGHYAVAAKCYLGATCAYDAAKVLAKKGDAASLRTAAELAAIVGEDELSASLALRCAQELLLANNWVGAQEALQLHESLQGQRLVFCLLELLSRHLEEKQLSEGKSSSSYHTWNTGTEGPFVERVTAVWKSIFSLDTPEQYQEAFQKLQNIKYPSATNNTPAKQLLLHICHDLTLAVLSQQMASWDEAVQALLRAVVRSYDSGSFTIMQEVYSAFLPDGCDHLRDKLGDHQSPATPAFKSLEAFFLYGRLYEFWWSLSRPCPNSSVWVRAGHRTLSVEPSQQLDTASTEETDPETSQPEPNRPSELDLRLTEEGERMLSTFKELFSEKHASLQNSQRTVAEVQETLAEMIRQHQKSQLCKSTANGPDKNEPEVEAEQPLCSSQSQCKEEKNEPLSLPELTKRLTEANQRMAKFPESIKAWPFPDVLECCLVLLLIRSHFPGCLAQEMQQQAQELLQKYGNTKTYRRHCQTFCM
UniProt P0CL80: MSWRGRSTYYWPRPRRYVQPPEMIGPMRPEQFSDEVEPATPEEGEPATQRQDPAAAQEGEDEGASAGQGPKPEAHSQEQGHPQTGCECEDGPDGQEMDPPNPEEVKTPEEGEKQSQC
UniProt P34059: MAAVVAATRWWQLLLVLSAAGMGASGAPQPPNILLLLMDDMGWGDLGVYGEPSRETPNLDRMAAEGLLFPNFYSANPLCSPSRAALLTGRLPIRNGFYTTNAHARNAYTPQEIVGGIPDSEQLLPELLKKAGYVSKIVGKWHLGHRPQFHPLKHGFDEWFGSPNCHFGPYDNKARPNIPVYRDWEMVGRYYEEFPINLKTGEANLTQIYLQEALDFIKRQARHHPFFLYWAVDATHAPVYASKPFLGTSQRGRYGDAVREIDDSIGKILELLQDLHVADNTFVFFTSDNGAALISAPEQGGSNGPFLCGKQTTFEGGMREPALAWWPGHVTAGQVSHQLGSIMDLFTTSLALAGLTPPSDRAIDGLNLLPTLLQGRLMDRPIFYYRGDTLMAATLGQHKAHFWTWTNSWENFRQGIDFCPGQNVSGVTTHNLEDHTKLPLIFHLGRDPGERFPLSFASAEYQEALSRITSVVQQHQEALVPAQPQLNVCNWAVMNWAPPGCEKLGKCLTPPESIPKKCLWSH
UniProt Q9BTY2: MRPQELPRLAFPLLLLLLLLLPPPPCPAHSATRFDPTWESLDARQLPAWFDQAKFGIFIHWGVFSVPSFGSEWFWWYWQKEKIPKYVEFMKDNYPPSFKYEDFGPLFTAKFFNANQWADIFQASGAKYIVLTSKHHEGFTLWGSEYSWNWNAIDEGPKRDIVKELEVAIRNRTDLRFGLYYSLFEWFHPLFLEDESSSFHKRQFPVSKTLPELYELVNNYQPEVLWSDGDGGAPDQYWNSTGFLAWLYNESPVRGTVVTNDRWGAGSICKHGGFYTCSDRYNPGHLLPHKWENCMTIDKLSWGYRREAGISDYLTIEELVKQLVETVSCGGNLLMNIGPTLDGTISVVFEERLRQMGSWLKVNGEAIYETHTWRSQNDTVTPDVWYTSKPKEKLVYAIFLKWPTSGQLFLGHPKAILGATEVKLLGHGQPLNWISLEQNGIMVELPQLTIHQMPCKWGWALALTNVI
UniProt Q96I24: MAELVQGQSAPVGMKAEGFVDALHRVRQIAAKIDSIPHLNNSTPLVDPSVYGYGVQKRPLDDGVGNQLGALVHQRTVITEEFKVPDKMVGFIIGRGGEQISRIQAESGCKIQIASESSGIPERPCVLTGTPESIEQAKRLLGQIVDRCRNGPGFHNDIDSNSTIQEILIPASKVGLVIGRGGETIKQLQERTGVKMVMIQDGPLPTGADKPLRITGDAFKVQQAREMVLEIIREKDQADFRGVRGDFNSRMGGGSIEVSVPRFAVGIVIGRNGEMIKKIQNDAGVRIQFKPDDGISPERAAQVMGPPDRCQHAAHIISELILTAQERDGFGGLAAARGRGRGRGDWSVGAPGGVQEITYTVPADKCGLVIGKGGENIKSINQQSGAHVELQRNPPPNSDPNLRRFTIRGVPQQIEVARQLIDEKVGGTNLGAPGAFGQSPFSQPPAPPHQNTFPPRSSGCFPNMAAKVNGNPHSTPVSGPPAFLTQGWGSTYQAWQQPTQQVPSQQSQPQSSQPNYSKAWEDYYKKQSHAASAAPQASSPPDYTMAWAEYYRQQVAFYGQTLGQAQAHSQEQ
UniProt P23434: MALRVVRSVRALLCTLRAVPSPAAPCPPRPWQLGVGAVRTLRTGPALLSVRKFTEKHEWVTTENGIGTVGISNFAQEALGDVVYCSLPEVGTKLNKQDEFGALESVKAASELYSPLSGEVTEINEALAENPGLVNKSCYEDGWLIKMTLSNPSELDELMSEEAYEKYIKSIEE
UniProt P02792: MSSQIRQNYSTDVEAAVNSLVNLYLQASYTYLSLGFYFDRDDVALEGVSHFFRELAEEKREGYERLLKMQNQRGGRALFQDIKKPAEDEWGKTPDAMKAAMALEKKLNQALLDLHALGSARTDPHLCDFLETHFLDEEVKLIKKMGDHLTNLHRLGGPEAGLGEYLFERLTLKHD
UniProt O15117, whole entry, looked up: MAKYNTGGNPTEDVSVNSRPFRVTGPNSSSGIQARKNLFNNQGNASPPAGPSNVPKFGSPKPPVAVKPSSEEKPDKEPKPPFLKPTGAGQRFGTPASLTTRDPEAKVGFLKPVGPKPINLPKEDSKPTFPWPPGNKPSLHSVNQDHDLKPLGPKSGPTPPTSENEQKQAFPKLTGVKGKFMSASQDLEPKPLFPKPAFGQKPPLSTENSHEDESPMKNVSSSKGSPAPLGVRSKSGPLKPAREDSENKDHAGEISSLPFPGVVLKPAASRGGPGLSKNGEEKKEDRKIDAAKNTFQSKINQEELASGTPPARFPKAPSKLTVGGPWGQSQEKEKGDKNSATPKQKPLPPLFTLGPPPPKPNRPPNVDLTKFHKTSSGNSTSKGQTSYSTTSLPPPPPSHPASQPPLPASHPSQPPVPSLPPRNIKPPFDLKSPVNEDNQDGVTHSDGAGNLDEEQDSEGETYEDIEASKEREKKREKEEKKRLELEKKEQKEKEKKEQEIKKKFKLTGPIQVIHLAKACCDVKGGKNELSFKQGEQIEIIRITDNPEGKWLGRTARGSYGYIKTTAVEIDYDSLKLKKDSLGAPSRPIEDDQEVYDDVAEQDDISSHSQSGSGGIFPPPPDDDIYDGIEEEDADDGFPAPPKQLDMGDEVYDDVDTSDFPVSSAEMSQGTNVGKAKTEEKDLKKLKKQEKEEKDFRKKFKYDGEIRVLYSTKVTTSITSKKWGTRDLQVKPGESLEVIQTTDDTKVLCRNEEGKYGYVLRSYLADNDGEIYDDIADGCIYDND
UniProt Q9H3C7, whole entry, looked up: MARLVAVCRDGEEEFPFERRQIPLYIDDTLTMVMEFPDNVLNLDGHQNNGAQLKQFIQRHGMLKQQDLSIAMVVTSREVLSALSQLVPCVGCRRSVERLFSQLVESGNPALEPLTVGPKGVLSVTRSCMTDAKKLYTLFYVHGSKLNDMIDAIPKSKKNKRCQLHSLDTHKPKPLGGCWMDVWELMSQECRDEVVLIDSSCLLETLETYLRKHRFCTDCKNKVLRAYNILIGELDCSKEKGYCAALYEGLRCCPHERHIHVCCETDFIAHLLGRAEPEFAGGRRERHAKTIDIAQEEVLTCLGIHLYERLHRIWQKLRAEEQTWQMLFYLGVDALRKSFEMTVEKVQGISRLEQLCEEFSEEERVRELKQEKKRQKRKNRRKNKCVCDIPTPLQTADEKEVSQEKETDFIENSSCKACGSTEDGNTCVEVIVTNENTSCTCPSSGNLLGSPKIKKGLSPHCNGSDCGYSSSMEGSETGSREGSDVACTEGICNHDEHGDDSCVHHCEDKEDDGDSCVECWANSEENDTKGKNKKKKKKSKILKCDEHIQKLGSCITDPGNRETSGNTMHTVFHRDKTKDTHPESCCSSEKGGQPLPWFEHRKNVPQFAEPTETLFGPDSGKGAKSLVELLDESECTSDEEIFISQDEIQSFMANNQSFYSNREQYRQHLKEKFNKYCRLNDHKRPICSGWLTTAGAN

compound: CC1=NC(=CC=C1)C2=C(N=C(N2)C(C)(C)C)C3=CC4=NC=CN=C4C=C3; experiment: log2 fold change, soluble protein after heating vs DMSO (PISA); higher = thermal stabilisation; K562 cells, 10 uM, 30 min; active = over 0.2 and 3.5 SD of the protein, either way, in both replicates (recomputed)
In short: (§1)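 K562 cells (2×10^6 cells/mL) were treated with 10 μM compound for 30 min, and aliquots were heated for 3 min over 48°C-58°C. Pooled aliquots were extracted in PBS with 0.5% NP-40 at 4°C, and the supernatant after 21,000xg for 90 min was measured by TMTpro 16plex LC-MS/MS with channel sums equalised. Reported thermal stability, relative to control samples and from duplicates, is a log2 fold change.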

Target | log2 fold change
G3BP2 (UniProt Q9UN86) | inactive: 0.034
GHDC (UniProt Q8N2G8) | inactive: -0.021
G3BP1 (UniProt Q13283) | inactive: -0.004
FUS (UniProt P35637) | inactive: 0.008
GDAP1 (UniProt Q8TB36) | inactive: -0.009
GALT (UniProt P07902) | inactive: -0.023
GALNT5 (UniProt Q7Z7M9) | inactive: -0.008
GALNT12 (UniProt Q8IXK2) | inactive: -0.051
GCDH (UniProt Q92947) | inactive: 0.009
GALK2 (UniProt Q01415) | inactive: 0.029
GGCT (UniProt O75223) | inactive: 0.015
GET4 (UniProt Q7L5D6) | inactive: -0.024
GALNT7 (UniProt Q86SF2) | inactive: -0.014
GCHFR (UniProt P30047) | inactive: 0.004
GFM1 (UniProt Q96RP9) | inactive: 0.045
GGA1 isoform 6 (UniProt Q9UJY5) | inactive: 0.018
FUBP1 isoform 2 (UniProt Q96AE4) | inactive: 0.017

Target | log2 fold change
GADD45GIP1 (UniProt Q8TAE8) | inactive: -0.047
GCLM (UniProt P48507) | inactive: 0.057
GART (UniProt C9JZG2) | inactive: 0.032
GEMIN5 (UniProt Q8TEQ6) | inactive: -0.013
GCAT isoform 2 (UniProt O75600) | inactive: 0.011
GAGE12F (UniProt P0CL80) | inactive: 0.061
GALNS (UniProt P34059) | inactive: -0.014
GGPS1 (UniProt O95749) | inactive: 0.005
FUCA2 (UniProt Q9BTY2) | inactive: -0.02
GFPT1 (UniProt Q06210) | inactive: 0.021
FUBP3 (UniProt Q96I24) | inactive: 0.122
GCSH (UniProt P23434) | inactive: 0.006
FTL (UniProt P02792) | inactive: 0.021
FYB1 isoform 3 (UniProt O15117) | inactive: 0.051
FURIN (UniProt P09958) | inactive: 0.034
GGNBP2 (UniProt Q9H3C7) | inactive: -0.032

compound: CCCCN(Cc1ccc(C(=O)NO)cc1)C(=O)Nc1ccccc1 [Nexturastat A]; experiment: as above
In short: as §1

Target | log2 fold change
G3BP2 (UniProt Q9UN86) | inactive: 0.208
GHDC (UniProt Q8N2G8) | inactive: -0.113
G3BP1 (UniProt Q13283) | inactive: 0.218
FUS (UniProt P35637) | inactive: 0.091
GDAP1 (UniProt Q8TB36) | inactive: 0.024
GALT (UniProt P07902) | inactive: -0.035
GALNT5 (UniProt Q7Z7M9) | inactive: -0.051
GALNT12 (UniProt Q8IXK2) | inactive: 0.081
GCDH (UniProt Q92947) | inactive: -0.007
GALK2 (UniProt Q01415) | inactive: -0.056
GGCT (UniProt O75223) | inactive: -0.063
GET4 (UniProt Q7L5D6) | inactive: 0.127
GALNT7 (UniProt Q86SF2) | inactive: -0.023
GCHFR (UniProt P30047) | inactive: 0.004
GFM1 (UniProt Q96RP9) | inactive: -0.069
GGA1 isoform 6 (UniProt Q9UJY5) | inactive: -0.09
FUBP1 isoform 2 (UniProt Q96AE4) | inactive: -0.086

Target | log2 fold change
GADD45GIP1 (UniProt Q8TAE8) | inactive: 0.028
GCLM (UniProt P48507) | inactive: -0.006
GART (UniProt C9JZG2) | inactive: -0.047
GEMIN5 (UniProt Q8TEQ6) | inactive: -0.004
GCAT isoform 2 (UniProt O75600) | inactive: -0.098
GAGE12F (UniProt P0CL80) | inactive: 0.036
GALNS (UniProt P34059) | inactive: 0.083
GGPS1 (UniProt O95749) | inactive: -0.013
FUCA2 (UniProt Q9BTY2) | inactive: -0.025
GFPT1 (UniProt Q06210) | inactive: 0.012
FUBP3 (UniProt Q96I24) | inactive: -0.114
GCSH (UniProt P23434) | inactive: -0.06
FTL (UniProt P02792) | inactive: 0.115
FYB1 isoform 3 (UniProt O15117) | inactive: 0.011
FURIN (UniProt P09958) | inactive: -0.115
GGNBP2 (UniProt Q9H3C7) | inactive: 0.255

compound: CCCS(=O)(=O)Nc1ccc(F)c(C(=O)c2c[nH]c3ncc(-c4ccc(Cl)cc4)cc23)c1F [vemurafenib]; experiment: as above
In short: as §1

Target | log2 fold change
G3BP2 (UniProt Q9UN86) | inactive: -0.01
GHDC (UniProt Q8N2G8) | inactive: -0.041
G3BP1 (UniProt Q13283) | inactive: 0.006
FUS (UniProt P35637) | inactive: -0.08
GDAP1 (UniProt Q8TB36) | inactive: -0.014
GALT (UniProt P07902) | inactive: 0.009
GALNT5 (UniProt Q7Z7M9) | inactive: 0.025
GALNT12 (UniProt Q8IXK2) | inactive: 0.007
GCDH (UniProt Q92947) | inactive: 0
GALK2 (UniProt Q01415) | inactive: 0
GGCT (UniProt O75223) | inactive: -0.008
GET4 (UniProt Q7L5D6) | inactive: 0.052
GALNT7 (UniProt Q86SF2) | inactive: 0.019
GCHFR (UniProt P30047) | inactive: -0.094
GFM1 (UniProt Q96RP9) | inactive: 0.05
GGA1 isoform 6 (UniProt Q9UJY5) | inactive: 0.052
FUBP1 isoform 2 (UniProt Q96AE4) | inactive: -0.021

Target | log2 fold change
GADD45GIP1 (UniProt Q8TAE8) | inactive: -0.083
GCLM (UniProt P48507) | inactive: 0.1
GART (UniProt C9JZG2) | inactive: -0.021
GEMIN5 (UniProt Q8TEQ6) | inactive: 0.015
GCAT isoform 2 (UniProt O75600) | inactive: 0.02
GAGE12F (UniProt P0CL80) | inactive: 0.019
GALNS (UniProt P34059) | inactive: -0.103
GGPS1 (UniProt O95749) | inactive: -0.005
FUCA2 (UniProt Q9BTY2) | inactive: 0.005
GFPT1 (UniProt Q06210) | inactive: 0.012
FUBP3 (UniProt Q96I24) | inactive: 0.035
GCSH (UniProt P23434) | inactive: 0.079
FTL (UniProt P02792) | inactive: -0.089
FYB1 isoform 3 (UniProt O15117) | inactive: -0.009
FURIN (UniProt P09958) | inactive: 0.062
GGNBP2 (UniProt Q9H3C7) | inactive: -0.102
